Assay results: PubChem BioAssay AID248 (DTP/NCI, 2004)
The list is a part of this screen's results and no random one: it is rich in T/C values a quarter to a half above the control, in often repeated tests (any T/C) and in doses without a T/C. Other doses and runs of a compound stand elsewhere. T/C is the treated group as % of the vehicle group. Some entries give survivors of the animals treated and no T/C: the source files T/C as zero there, which appears to mark a toxic dose or a test without result, not a measured value. Some doses without a T/C left all or most animals alive at the check, yet need not have been tolerated: the source hardly ever lists a survival T/C far under the control, and the zero likely stands for such cases as well. Survivors were counted at the toxicity check, usually on the fifth day, unless a day is given; later deaths do not show. Schedule codes are those of the source, taken here to give the interval after Q, in days (D) or hours (H), and the number of doses after X. Some entries hold several experiments; the values are given in rising order. Some schedule codes hold Z or #, which are not explained here. Some structures stand for samples that the source files as different forms (salt, stereo form or complex); doses refer to the form tested. For survival time, this PubChem deposit counts one and a half times the control or more as active, and values a quarter to a half above the control carry no call in these data; other NCI protocols may use other cut-offs. Some T/C values carry the count of animals alive at the toxicity check (mostly the fifth day); without a count, all were alive then.

System: L1210 leukemia ip in BDF1 mice, survival T/C
Assay: NCI In Vivo Anticancer Drug Screen. Data for tumor model L1210 Leukemia (intraperitoneal) in B6D2F1 (BDF1) mice
Details: T/C endpoint: mean survival time, higher T/C = longer survival
[1] = dose: 200.0 mg/kg/injection, schedule: Q01DX001 (ip), vehicle: saline
[2] = dose: 400.0 mg/kg/injection, schedule: Q01DX001 (ip), vehicle: saline
[3] = dose: 50.0 mg/kg/injection, schedule: Q04DX002 (ip), vehicle: Klucel (hydroxypropylcellulose) (HPC)
[4] = dose: 100.0 mg/kg/injection, schedule: Q04DX002 (ip), vehicle: Klucel (hydroxypropylcellulose) (HPC)
[5] = dose: 200.0 mg/kg/injection, schedule: Q04DX002 (ip), vehicle: Klucel (hydroxypropylcellulose) (HPC)
[6] = dose: 400.0 mg/kg/injection, schedule: Q04DX002 (ip), vehicle: Klucel (hydroxypropylcellulose) (HPC)
[7] = dose: 400.0 mg/kg/injection, schedule: Q01DX009 (ip), vehicle: saline with Tween-80
[8] = dose: 200.0 mg/kg/injection, schedule: Q01DX009 (ip), vehicle: saline
[9] = dose: 400.0 mg/kg/injection, schedule: Q01DX009 (ip), vehicle: Klucel (hydroxypropylcellulose) (HPC)
[10] = dose: 400.0 mg/kg/injection, schedule: Q04DX002 (ip), vehicle: saline with Tween-80

CC(C)(C)C1CCC(=N[N+](C)(C)C)CC1 (configuration not stated)
survivor count [1]: 2 of 4
survivor count [2]: 0 of 4

Nc1ccc(-c2cc3ccccc3oc2=O)cc1
survivor count (dose: 25.0 mg/kg/injection, schedule: Q04DX002 (ip), vehicle: Klucel (hydroxypropylcellulose) (HPC)): 0 of 3
survivor count [3]: 0 of 3
survivor count [4]: 0 of 3
survivor count [5]: 0 of 3
survivor count [6]: 0 of 3

CSc1ccc(OC(=O)Nc2ccc(C)c([N+](=O)[O-])c2)cc1C
survivor count [7]: 0 of 6

O=C(O)C(CNC(=O)C(F)(F)F)Cc1ccc([N+](=O)[O-])cc1 (configuration not stated)
survivor count (dose: 50.0 mg/kg/injection, schedule: Q01DX009 (ip), vehicle: saline with Tween-80): 3 of 3
survivor count (dose: 50.0 mg/kg/injection, schedule: Q01DX009 (ip), vehicle: saline): 3 of 3
survivor count (dose: 200.0 mg/kg/injection, schedule: Q01DX009 (ip), vehicle: saline with Tween-80): 3 of 3

S=C(NCc1ccccc1)[S][Sn]([S]C(=S)NCc1ccccc1)([c]1ccccc1)[c]1ccccc1
survivor count (dose: 40.0 mg/kg/injection, schedule: Q01DX001 (ip), vehicle: steroid suspending solution): 2 of 6
survivor count (dose: 80.0 mg/kg/injection, schedule: Q01DX001 (ip), vehicle: steroid suspending solution): 0 of 6
survivor count (dose: 100.0 mg/kg/injection, schedule: Q01DX001 (ip), vehicle: steroid suspending solution): 2 of 6
survivor count (dose: 200.0 mg/kg/injection, schedule: Q01DX001 (ip), vehicle: steroid suspending solution): 0 of 6
survivor count (dose: 400.0 mg/kg/injection, schedule: Q01DX001 (ip), vehicle: steroid suspending solution): 0 of 6

NN1CCCC1
survivor count [8]: 3 of 6
survivor count (dose: 400.0 mg/kg/injection, schedule: Q04DX003 (ip), vehicle: saline): 6 of 6

O=C(NOCc1cc2c(cc1Cl)OCO2)c1ccc(S(=O)(=O)F)cc1
survivor count (dose: 200.0 mg/kg/injection, schedule: Q04DX003 (ip), vehicle: saline sonified): 6 of 6
survivor count (dose: 400.0 mg/kg/injection, schedule: Q04DX003 (ip), vehicle: saline sonified): 6 of 6

Cc1cc(O)c(C=O)c(C)c1O
survivor count [9]: 1 of 6

O=c1[nH]c2nc3ccccc3nc2c(=O)n1O
survivor count [9]: 1 of 6

CN(C)Nc1ncnc2nc[nH]c12
survivor count (dose: 200.0 mg/kg/injection, schedule: Q01DX Z (ip), vehicle: carboxymethylcellulose (CMC)): 2 of 6
survivor count (dose: 400.0 mg/kg/injection, schedule: Q01DX Z (ip), vehicle: carboxymethylcellulose (CMC)): 0 of 6

CN(C)C(=S)SCC(=O)[O][Sn]([c]1ccccc1)([c]1ccccc1)[c]1ccccc1
survivor count (dose: 100.0 mg/kg/injection, schedule: Q04DX002 (ip), vehicle: saline with Tween-80): 0 of 3
survivor count (dose: 200.0 mg/kg/injection, schedule: Q04DX002 (ip), vehicle: saline with Tween-80): 0 of 3
survivor count [10]: 0 of 3

Oc1cc(Br)c(O)c(Br)c1
survivor count [5]: 0 of 3

CCCCN=C([Se])NCCCC
survivor count (dose: 120.0 mg/kg/injection, schedule: Q01DX015 (ip), vehicle: carboxymethylcellulose (CMC)): 0 of 6

CC1=CC(=O)c2c(O)ccc(O)c2C1=O
survivor count (dose: 80.0 mg/kg/injection, schedule: Q01DX001 (ip), vehicle: saline): 2 of 6

Cc1ccc(SSc2ccc(C)cc2)cc1
survivor count (dose: 150.0 mg/kg/injection, schedule: Q01DX009 (ip), vehicle: saline): 3 of 6
survivor count (dose: 300.0 mg/kg/injection, schedule: Q01DX009 (ip), vehicle: saline): 3 of 6

Nc1nc(N)c2nc(CNc3ccc(CC(=O)NC(CC(=O)O)C(=O)O)cc3)cnc2n1 (configuration not stated)
T/C (dose: 200.0 mg/kg/injection, schedule: Q01DX009 (ip), vehicle: sodium bicarbonate): 129 % of control

Cc1ccc2nc(-c3ccc(N)cc3)sc2c1
survivor count [7]: 0 of 6

NC(=O)N1C(=O)C2C3C=CC(O3)C2C1=O (configuration not stated)
survivor count (dose: 400.0 mg/kg/injection, schedule: Q01DX009 (ip), vehicle: saline): 6 of 6

CNC(=O)c1cc(NC(=O)c2ccc(C(=O)Nc3cc(C(=O)NC)cc(C4=NCCN4)c3)cc2)cc(C2=NCCN2)c1
T/C (dose: 250.0 mg/kg/injection, schedule: Q01DX015 (ip), vehicle: methylcellulose (MC)): 133 % of control
survivor count (dose: 400.0 mg/kg/injection, schedule: Q01DX001 (ip), vehicle: carboxymethylcellulose (CMC)): 4 of 4

O=C1OC(=O)c2c(O)cccc21
survivor count (dose: 225.0 mg/kg/injection, schedule: Q01DX009 (ip), vehicle: saline with Tween-80): 3 of 6
survivor count (dose: 335.0 mg/kg/injection, schedule: Q01DX009 (ip), vehicle: saline with Tween-80): 0 of 6

O=C1CCCCC1c1sc([N+](=O)[O-])cc1[N+](=O)[O-] (configuration not stated)
survivor count [10]: 0 of 3

O=C(O)c1ccc(I)cc1.[Ni]
T/C [4]: 128 % of control [2 of 3 alive]
survivor count [4]: 0 of 3
survivor count [5]: 0 of 3 and 1 of 3
survivor count [6]: 2 of 3

CC1(C)C2CCC1(C)C(N=C(N)CSS(=O)(=O)O)C2 (configuration not stated)
survivor count [3]: 3 of 3
survivor count [4]: 3 of 3
survivor count [5]: 1 of 3
survivor count [6]: 0 of 3

CC(C)=CC[P+](c1ccccc1)(c1ccccc1)c1ccccc1
survivor count (dose: 100.0 mg/kg/injection, schedule: Q01DX001 (ip), vehicle: saline): 0 of 6 and 2 of 6
survivor count (dose: 100.0 mg/kg/injection, schedule: Q01DX009 (ip), vehicle: saline): 1 of 3
survivor count [1]: 0 of 6
survivor count [8]: 0 of 3
survivor count [2]: 0 of 6

C=C1c2[nH]c3ccccc3c2C2C(CC)C1CCN2C (configuration not stated)
survivor count (dose: 75.0 mg/kg/injection, schedule: Q01DX Z (ip), vehicle: olive oil, sesame oil, peanut oil): 3 of 6
survivor count (dose: 100.0 mg/kg/injection, schedule: Q01DX Z (ip), vehicle: olive oil, sesame oil, peanut oil): 4 of 7
survivor count (dose: 150.0 mg/kg/injection, schedule: Q01DX Z (ip), vehicle: olive oil, sesame oil, peanut oil): 0 of 7

CC(=O)[O][Sn]([c]1ccccc1)([c]1ccccc1)[c]1ccccc1
survivor count (dose: 3.12 mg/kg/injection, schedule: Q04DX003 (ip), vehicle: saline): 6 of 6
survivor count (dose: 4.0 mg/kg/injection, schedule: Q01DX015 (ip), vehicle: saline): 1 of 6
survivor count (dose: 5.31 mg/kg/injection, schedule: Q01DX009 (ip), vehicle: saline with Tween-80): 3 of 6
survivor count (dose: 6.25 mg/kg/injection, schedule: Q04DX003 (ip), vehicle: saline): 2 of 6
survivor count (dose: 8.0 mg/kg/injection, schedule: Q01DX015 (ip), vehicle: saline): 3 of 6
survivor count (dose: 100.0 mg/kg/injection, schedule: Q04DX003 (ip), vehicle: acetone): 0 of 6
survivor count (dose: 200.0 mg/kg/injection, schedule: Q04DX003 (ip), vehicle: acetone): 0 of 6
survivor count (dose: 400.0 mg/kg/injection, schedule: Q04DX003 (ip), vehicle: acetone): 0 of 6

NC(N)=Nc1ccc(OC(=O)c2ccc(N=C(N)N)cc2)cc1
survivor count (dose: 100.0 mg/kg/injection, schedule: Q01DX009 (ip), vehicle: water): 3 of 6
survivor count (dose: 200.0 mg/kg/injection, schedule: Q01DX009 (ip), vehicle: water): 0 of 6
survivor count (dose: 400.0 mg/kg/injection, schedule: Q01DX009 (ip), vehicle: water): 0 of 6

CC#CC#C/C=C1/C=CC(=O)O1
survivor count (dose: 35.0 mg/kg/injection, schedule: Q01DX009 (ip), vehicle: saline): 1 of 6
survivor count (dose: 50.0 mg/kg/injection, schedule: Q04DX003 (ip), vehicle: alcohol): 6 of 6
survivor count (dose: 55.0 mg/kg/injection, schedule: Q01DX009 (ip), vehicle: saline): 0 of 6
survivor count (dose: 100.0 mg/kg/injection, schedule: Q04DX003 (ip), vehicle: alcohol): 1 of 6
survivor count (dose: 200.0 mg/kg/injection, schedule: Q04DX003 (ip), vehicle: alcohol): 0 of 6
